# Results of single-concentration screens

Amino acid sequences for entries named in this document (tags omitted). Residues count along the entry.
UniProt A4I591, 1-473: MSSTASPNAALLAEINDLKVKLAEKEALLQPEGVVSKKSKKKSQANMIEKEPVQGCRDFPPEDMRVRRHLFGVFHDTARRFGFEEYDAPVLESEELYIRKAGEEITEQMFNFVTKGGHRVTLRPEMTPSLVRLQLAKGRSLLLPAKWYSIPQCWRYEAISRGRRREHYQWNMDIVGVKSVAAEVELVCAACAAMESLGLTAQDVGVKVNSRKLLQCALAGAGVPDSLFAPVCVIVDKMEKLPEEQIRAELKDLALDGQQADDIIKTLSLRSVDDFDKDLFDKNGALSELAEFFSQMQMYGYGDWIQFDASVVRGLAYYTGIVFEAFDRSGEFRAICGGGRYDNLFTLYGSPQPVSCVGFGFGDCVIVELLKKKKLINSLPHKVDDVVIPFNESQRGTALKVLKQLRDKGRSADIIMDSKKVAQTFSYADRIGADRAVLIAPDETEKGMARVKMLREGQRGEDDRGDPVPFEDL
UniProt Q8IDJ8, 1-583: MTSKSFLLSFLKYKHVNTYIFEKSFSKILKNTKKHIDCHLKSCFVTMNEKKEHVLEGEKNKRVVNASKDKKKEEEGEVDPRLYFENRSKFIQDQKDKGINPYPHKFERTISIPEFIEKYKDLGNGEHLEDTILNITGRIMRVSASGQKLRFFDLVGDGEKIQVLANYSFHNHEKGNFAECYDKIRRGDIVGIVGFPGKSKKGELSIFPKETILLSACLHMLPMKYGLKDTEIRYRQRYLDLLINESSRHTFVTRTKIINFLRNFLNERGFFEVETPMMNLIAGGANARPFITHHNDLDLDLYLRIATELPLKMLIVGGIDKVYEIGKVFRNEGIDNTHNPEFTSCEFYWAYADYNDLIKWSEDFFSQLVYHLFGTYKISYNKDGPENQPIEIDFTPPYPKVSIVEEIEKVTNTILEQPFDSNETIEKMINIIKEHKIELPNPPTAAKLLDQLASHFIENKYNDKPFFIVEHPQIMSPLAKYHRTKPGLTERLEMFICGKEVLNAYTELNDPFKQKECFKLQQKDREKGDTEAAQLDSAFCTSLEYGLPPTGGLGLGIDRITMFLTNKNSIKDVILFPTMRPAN
UniProt Q4DA54, 1-478: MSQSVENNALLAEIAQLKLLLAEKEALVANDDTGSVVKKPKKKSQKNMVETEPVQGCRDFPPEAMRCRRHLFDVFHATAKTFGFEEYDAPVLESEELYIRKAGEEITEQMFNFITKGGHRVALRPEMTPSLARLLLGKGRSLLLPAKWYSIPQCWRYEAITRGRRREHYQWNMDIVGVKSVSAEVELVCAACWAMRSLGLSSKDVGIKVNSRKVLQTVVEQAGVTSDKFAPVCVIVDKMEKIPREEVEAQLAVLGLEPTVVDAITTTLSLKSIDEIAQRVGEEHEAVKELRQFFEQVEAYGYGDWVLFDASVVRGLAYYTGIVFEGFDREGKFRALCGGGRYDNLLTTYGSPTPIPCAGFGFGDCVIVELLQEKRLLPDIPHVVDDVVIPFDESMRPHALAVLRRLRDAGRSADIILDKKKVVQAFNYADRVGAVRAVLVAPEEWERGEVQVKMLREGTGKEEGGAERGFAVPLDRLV

A: 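Histidine-tRNA ligase, Leishmania infantum (UniProt A4I591). Enzyme assay of histidyl-tRNA synthetase; the read-out is not stated. Compounds at 30 µM. The record gives no direction; compounds that gave an IC50 in retests scored well above the rest, so higher reads as stronger inhibition. The assay is labelled LdHisRS but filed under L. infantum. Size under these conditions: about 69,000 compounds, about 410 of them at 50% or above in at least one test.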
B: 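Enzyme assay of the cytosolic lysyl-tRNA synthetase in 384-well plates, read by luminescence. Target: Lysine-tRNA ligase, Plasmodium falciparum 3D7 (UniProt Q8IDJ8). Tested at 30 µM. Direction is inferred from only a few compounds that gave an IC50; most scored high, so higher reads as stronger inhibition. Of about 69,000 compounds tested this way, about 49 (0.071%) reached 50% or more in at least one test.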
C: 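Histidine-tRNA ligase, Trypanosoma cruzi CL Brener (UniProt Q4DA54). Enzyme assay of histidyl-tRNA synthetase; the read-out is not stated. Tested at 30 µM. Higher reads as stronger inhibition (inferred: compounds with an IC50 in retests scored well above the rest). Size under these conditions: about 69,000 compounds, about 31 of them at 50% or above in at least one test.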

Values are the deposited “Percent Effect”, in %. The controls that fix the scale are not given in the record; negative values are as filed. Compounds were drawn at random from those tested, without regard to their results.

{"structure": "O=C(c1cccnc1)C1CCCN(c2nnc(C3CC3)o2)C1", "stereo": "centres undefined", "A": 7.463, "B": 1.944, "C": 4.255}
{"structure": "NC(=O)c1ccc(-n2ccnc2C2CC2)cc1N1CCCC1", "A": 26.98, "B": 3.91, "C": 2.564}
{"structure": "NC(CC1CCCC1)c1ccc(Oc2ccccc2)cc1", "stereo": "centres undefined", "A": 31.91, "B": 2.211, "C": 35.26}
{"structure": "CC(C)c1nc(CN(C)CC2CCN(CCO)CC2)no1", "A": 13.46, "B": -0.6013, "C": 1.667}
{"structure": "CN(C)S(=O)(=O)N1CCC(C(O)c2ccc(Cl)cc2)CC1", "stereo": "centres undefined", "A": 12.4, "B": 4.396, "C": 7.143}
{"structure": "COc1c(CNCC(O)c2ccc(C)cc2)c(C(C)C)nn1C", "stereo": "centres undefined", "A": 11.5, "B": -1.612, "C": 7.289}
{"structure": "O=C(CCC(=O)c1cccs1)NC1(C(=O)NCC2CC2)CCCC1", "A": 1.754, "B": 3.61, "C": 5.882}
{"structure": "CCn1ccc(-c2nnc(SCC(=O)Nc3ccc(C)cc3)n2CC)n1", "A": 14.94, "B": -1.372, "C": 5.155}
{"structure": "COc1ccccc1OC1(C(=O)O)CCN(c2nc(C)cnc2C)CC1", "A": 19.2, "B": 1.994, "C": 1.961}
{"structure": "Cc1ccc(F)c(N2CCCC(NS(=O)(=O)CCCF)C2=O)c1", "stereo": "centres undefined", "A": 9.821, "B": 0.7763, "C": 12.07}
{"structure": "COCCCS(=O)(=O)N1CCN(c2cccc(O)c2)CC1", "A": 8.264, "B": 7.038, "C": 5.102}
{"structure": "CC(C(=O)NCc1ccc(N2CCCCC2)nc1)S(C)(=O)=O", "stereo": "centres undefined", "A": 7.895, "B": 2.477, "C": 2.035}
{"structure": "Cc1nc(C2CCCN(C(=O)CCCn3ccnc3C)C2)no1", "stereo": "centres undefined", "A": -10.96, "B": -5.646, "C": 3.817}
{"structure": "CS(=O)(=O)N1C[C@@H]2CC[C@H](C1)N(C(=O)Cn1nc3ccccc3n1)C2", "A": -1.653, "B": -3.959, "C": 5.042}
{"structure": "Cc1cnn(CC2CCCN2C(=O)c2ccc(-n3cccn3)nc2)c1", "stereo": "centres undefined", "A": 17.59, "B": 0.1138, "C": 2.053}
{"structure": "CC(C)n1cnc(-c2nc(C(=O)N3CCCC3)c3ccccn23)c1", "A": 22.86, "B": 5.305, "C": 3.922}
{"structure": "Cc1ccc(C(O)CNC(=O)CCCc2ccccn2)o1", "stereo": "centres undefined", "A": 10.75, "B": 5.068, "C": -2.469}
{"structure": "COc1ccc(CCC(=O)N(C)Cc2c(C)nn(C)c2C)cc1", "A": 7.08, "B": -2.386, "C": -4.386}
{"structure": "O=C(c1ccc(=O)[nH]n1)N1CCCC1C1CCCC1", "stereo": "centres undefined", "A": 15.71, "B": 9.615, "C": 5.319}
{"structure": "COCCOc1ccc(NC(=O)C2CCCN(C(N)=O)C2)cn1", "stereo": "centres undefined", "A": -28.09, "B": 4.823, "C": 4.511}
{"structure": "CN1CCCC1CNC(=O)c1nnn(-c2ccc(F)cc2)c1C1CC1", "stereo": "centres undefined", "A": 3.846, "B": 0.855, "C": 0.5348}
{"structure": "CC(C)N(CC(C)(C)O)C(=O)NC1CC1", "A": 19.1, "B": 4.147, "C": 7.772}
{"structure": "COc1ccc(F)c(-c2cc(NCCO)nc(N)n2)c1", "A": 8.547, "B": 7.173, "C": 5.946}
{"structure": "CN(C)C(=O)CN1C[C@@H]2OCCN(c3ncc(F)cn3)[C@@H]2C1", "A": 13.89, "B": 4.399, "C": 5.607}

The first 2 entries again:

With O=C(c1cccnc1)C1CCCN(c2nnc(C3CC3)o2)C1 (centres undefined) the screen gave A: 7.463%; B: 1.944%; C: 4.255%.
With NC(=O)c1ccc(-n2ccnc2C2CC2)cc1N1CCCC1 the screen gave A: 26.98%; B: 3.91%; C: 2.564%.

Source: ChEMBL document CHEMBL3988442, “University of Dundee, Small-Polar-MMV Screening Library” (2021).